{
  "sequences": {"note": "The chains behind the UniProt entries cited, without tags or fusion partners.", "UniProt P06702": "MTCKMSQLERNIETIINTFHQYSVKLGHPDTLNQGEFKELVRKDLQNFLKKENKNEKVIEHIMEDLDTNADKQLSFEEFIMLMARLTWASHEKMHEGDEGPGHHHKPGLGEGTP", "UniProt P23297": "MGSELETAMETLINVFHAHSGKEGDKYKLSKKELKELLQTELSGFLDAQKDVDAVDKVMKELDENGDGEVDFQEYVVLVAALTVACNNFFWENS"},
  "source": "paper PMC3648463",
  "about": "“Common Interactions between S100A4 and S100A9 Defined by a Novel Chemical Probe” (PLoS ONE, 2013)",
  "molecular_target": "recombinant human S100A9 (human) (UniProt P06702)",
  "experiment": "SPR; S100A1, A4, A7, A9 and A13 (~1.3 µg/mL) injected (2 min at 30 µL/min) over immobilised S100A4 and S100A9 (~2.5 kRU); 1 mM Ca++ and 20 µM Zn++; responses at late association phase; both purified",
  "note": "No constants are given. Whether binding was seen depends on the method and setting.",
  "data": [
    {"substance": "recombinant human S100A1 (from UniProt P23297 1-94)", "values": [
      {"measurement": "binding", "result": "no binding (tested: ~1.3 µg/mL)"}
    ]}
  ]
}
